Source: PMC5159797
Results are given in words; binding and its absence hold for the method and conditions named. In cells and extracts the contact can be indirect. Some binding calls cover weakened binding; strength is not graded here. For part of these data: Tags and fused reporters may be left off the sequences shown.

Protein sequences, listed by entry. Tags and fused reporters are not part of them.
UniProt Q15691: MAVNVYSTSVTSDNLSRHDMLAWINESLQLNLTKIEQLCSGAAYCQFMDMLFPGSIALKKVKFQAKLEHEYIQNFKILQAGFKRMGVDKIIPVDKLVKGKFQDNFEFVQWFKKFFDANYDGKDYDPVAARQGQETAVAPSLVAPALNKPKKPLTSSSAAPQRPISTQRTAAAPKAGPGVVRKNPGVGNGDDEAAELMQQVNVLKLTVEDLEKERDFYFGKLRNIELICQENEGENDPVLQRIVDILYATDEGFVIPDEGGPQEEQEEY
UniProt P49841: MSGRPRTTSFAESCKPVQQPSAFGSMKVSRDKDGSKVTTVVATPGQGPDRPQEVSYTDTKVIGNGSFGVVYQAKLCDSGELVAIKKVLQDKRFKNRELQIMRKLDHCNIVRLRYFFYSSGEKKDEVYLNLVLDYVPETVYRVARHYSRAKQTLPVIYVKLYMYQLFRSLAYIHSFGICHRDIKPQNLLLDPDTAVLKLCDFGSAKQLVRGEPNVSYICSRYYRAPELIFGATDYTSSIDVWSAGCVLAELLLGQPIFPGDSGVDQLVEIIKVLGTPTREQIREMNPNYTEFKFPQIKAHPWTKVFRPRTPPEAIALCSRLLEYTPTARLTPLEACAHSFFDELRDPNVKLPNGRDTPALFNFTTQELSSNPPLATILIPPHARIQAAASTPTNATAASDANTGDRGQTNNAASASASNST
UniProt Q8N4N8: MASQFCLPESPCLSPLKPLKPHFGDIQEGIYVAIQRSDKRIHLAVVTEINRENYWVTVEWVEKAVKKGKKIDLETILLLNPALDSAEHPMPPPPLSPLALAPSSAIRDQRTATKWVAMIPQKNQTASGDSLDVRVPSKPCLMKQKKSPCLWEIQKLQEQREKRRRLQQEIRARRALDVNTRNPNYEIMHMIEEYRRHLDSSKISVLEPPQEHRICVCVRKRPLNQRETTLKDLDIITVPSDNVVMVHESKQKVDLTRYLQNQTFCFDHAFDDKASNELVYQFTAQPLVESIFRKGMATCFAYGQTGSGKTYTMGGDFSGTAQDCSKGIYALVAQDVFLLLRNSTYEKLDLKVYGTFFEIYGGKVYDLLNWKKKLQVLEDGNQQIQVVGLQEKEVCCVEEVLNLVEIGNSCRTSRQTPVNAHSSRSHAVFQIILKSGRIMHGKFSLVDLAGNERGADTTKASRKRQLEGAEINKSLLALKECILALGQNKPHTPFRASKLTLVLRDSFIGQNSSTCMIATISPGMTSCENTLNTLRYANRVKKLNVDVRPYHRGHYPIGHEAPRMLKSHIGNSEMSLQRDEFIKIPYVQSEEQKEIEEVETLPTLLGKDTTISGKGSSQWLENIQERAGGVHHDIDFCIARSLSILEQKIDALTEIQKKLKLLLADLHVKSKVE

Key:
[1] = target: T1, SKAP (small kinetochore-associated protein), endogenous (human (endogenous in HeLa)) (UniProt Q9Y448); experiment: co-IP; HeLa cell lysates (synchronized in mitosis; also unsynchronized, prometaphase or metaphase) incubated with SKAP rabbit IgG pre-bound to Protein A/G-agarose, control IgG; Western blot
T1 sequence: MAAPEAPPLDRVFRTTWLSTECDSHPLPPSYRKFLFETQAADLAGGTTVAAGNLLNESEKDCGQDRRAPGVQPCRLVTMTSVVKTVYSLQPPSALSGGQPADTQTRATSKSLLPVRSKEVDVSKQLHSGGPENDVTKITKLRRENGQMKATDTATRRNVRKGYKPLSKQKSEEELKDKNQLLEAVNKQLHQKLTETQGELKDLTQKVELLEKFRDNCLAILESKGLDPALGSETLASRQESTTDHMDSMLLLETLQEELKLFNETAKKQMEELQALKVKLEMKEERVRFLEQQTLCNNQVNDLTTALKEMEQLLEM

[2] = target: T2, FLAG-SKAP (UniProt Q9Y448); experiment: co-IP; HEK293T co-transfected with FLAG-SKAP and GFP-tagged proteins; anti-FLAG antibody-agarose beads; lysis buffer 50 mM HEPES pH 7.4, 100 mM NaCl, 2 mM EGTA, 1 mM MgCl2, 1 mM DTT, 0.1% Triton X-100; also after SB415286 for 30 min; anti-GFP and anti-FLAG blots
T2 sequence: T1 sequence

[3] = target: T3, GST-SKAP (UniProt Q9Y448); experiment: pull-down; GST fusion protein-bound sepharose beads incubated 2 h at 4 °C with HEK293T cell lysates containing GFP-tagged proteins; PBS, 0.1% Triton X-100; anti-GFP blot; only the target purified
T3 sequence: T1 sequence

Substance | binding [1] | binding [2] | binding [3]
EB1, endogenous (from UniProt Q15691 1-268) | binds | – | –
GFP-GSK3β (from UniProt P49841 1-420) (enzyme) | – | binds | –
GSK3β, endogenous (from UniProt P49841 1-420) (enzyme) | binds | – | –
Kif2b, endogenous (from UniProt Q8N4N8 1-673) | binds | – | –
GFP-Kif2b (from UniProt Q8N4N8 1-673) | – | binds | binds
